Source: the supplement of paper PMC5949888
Most values lie at the floor of the assay. Slopes are relative: functional sequences can read slightly below zero.

Each substance was assayed on Saccharomyces cerevisiae PS128 hsf1 delta, HSF1(1-493) fusion (assay: growth estimate (transactivation domain function in HSF1 fusion, heat-shock survival) (a.u. (slope of normalised read count over time)); higher = stronger growth at 37°C, i.e. more transactivation activity). Settings: library: random library.

Substance | growth estimate
LSLLIANTRRELCGLSSIPL | < -0.25
DNELMTTRT | < -0.25
LVVSLH | < -0.25
IGAQQWFQQYRGQGTGIGSY | < -0.25
LVGGIRS | < -0.25
YPGEHVGPVPKEVKTPWLNW | < -0.25
RHSIEHRAVVPKRDTNLNQD | < -0.25
CGLLSVGKGSPHGSRSLIAR | < -0.25
IYSDCAGASPVNQLYGTVSG | < -0.25
MAGASRVLMAVWGEKSLEPT | < -0.25
LHEAAGIAASSGNK | < -0.25
VASDGWTISRDR | -0.246
VEFGSFICIAGPPRPDSSLQ | < -0.25
SGRPFGKRCALPDYSGQVIG | < -0.25
ESCPPLGVDHGLMFDLLVGG | < -0.25
GAPGQ | < -0.25
LRNLTSIY | < -0.25
PYRSLTFAQNVLLAKVYREQ | < -0.25
LELERGS | -0.245
GFLNAASPYTTRSV | < -0.25
LISVSVSPVQLAGWWGQ | < -0.25
VGAGKDRERPGRLVATCTSH | < -0.25
NGDVRGGRVSLF | < -0.25

Substance | growth estimate
TEAAPPHVVNVAAFKISGGF | < -0.25
RLGIQPS | < -0.25
QSLR | < -0.25
SWSGGGRIKCQARAPPALIS | < -0.25
GLPFSQGRL | < -0.25
LSLVRGRKN | < -0.25
PTGFWA | -0.175
SCIAKASVKCAVQPRREIPQ | < -0.25
ENAFWVSESCEQSQKRWAVS | < -0.25
VYRLGNVSDAFPQ | -0.168
RNMRSVICTER | < -0.25
NREHVTRRVNTIILT | < -0.25
RGP | < -0.25
DRSDLFGASQHGACVHTRRS | < -0.25
IISSPGRVSHCTWTEKSVVI | < -0.25
SGTSSLGSGVRTPHTCNGPG | -0.246
AASVLPCGR | < -0.25
TTGLLCLPKSLTRPLGGVRG | < -0.25
AMCA | < -0.25
GGYPRYFWASCP | < -0.25
ILMSVDP | < -0.25
IETVRCTPTEGLRNGGCST | < -0.25
SKLPRLFSSVGTMLGRVRTA | -0.236

Substance | growth estimate
FRSCSDEYYTTIRERVLCVN | < -0.25
HETSRSECGGHESRLDRGNN | < -0.25
PCILGFRQGRYFVRTRTPYV | < -0.25
SVRETRWHLLPQEMILRGPD | < -0.25
TLRGGIARPHSETPLSENGP | < -0.25
GSWVQEEAHCITAKRCLVTR | < -0.25
NRGSVNNLSFAH | < -0.25
SITGSLDRCSPNDETGHGHI | -0.19
LASSWSRYIRMLSYQEPSCA | < -0.25
CGINLLHAGSPDVLAMKSFT | < -0.25
TTLEVSEGAGVGWKM | < -0.25
IGLRLELSL | < -0.25
DICESREGRSIVRGTCSPIA | < -0.25
HRSGAFSVEICPRCVLMRSR | < -0.25
TVNVWEADVFCKVGGNLEAW | < -0.25
CFGSRG | < -0.25
LTPVIGCRAKGFSDMDSWYN | < -0.25
KLQLILPLCEVWPFGTVMIA | < -0.25
DLPPF | < -0.25
QVPLSLRIA | < -0.25
EKYSARYHRRTRDHFRLVP | < -0.25
KGSAL | < -0.25
SQPSVKSAGPMFMQ | < -0.25

A second format for part of the listing above.
Substance,growth estimate
SWSGGGRIKCQARAPPALIS,< -0.25
GLPFSQGRL,< -0.25
LSLVRGRKN,< -0.25
PTGFWA,-0.175
SCIAKASVKCAVQPRREIPQ,< -0.25
ENAFWVSESCEQSQKRWAVS,< -0.25
VYRLGNVSDAFPQ,-0.168
RNMRSVICTER,< -0.25
NREHVTRRVNTIILT,< -0.25
RGP,< -0.25
DRSDLFGASQHGACVHTRRS,< -0.25
IISSPGRVSHCTWTEKSVVI,< -0.25
SGTSSLGSGVRTPHTCNGPG,-0.246
AASVLPCGR,< -0.25
TTGLLCLPKSLTRPLGGVRG,< -0.25
AMCA,< -0.25
GGYPRYFWASCP,< -0.25
ILMSVDP,< -0.25
IETVRCTPTEGLRNGGCST,< -0.25
SKLPRLFSSVGTMLGRVRTA,-0.236
FRSCSDEYYTTIRERVLCVN,< -0.25
HETSRSECGGHESRLDRGNN,< -0.25
PCILGFRQGRYFVRTRTPYV,< -0.25
SVRETRWHLLPQEMILRGPD,< -0.25
TLRGGIARPHSETPLSENGP,< -0.25
GSWVQEEAHCITAKRCLVTR,< -0.25
NRGSVNNLSFAH,< -0.25
SITGSLDRCSPNDETGHGHI,-0.19
LASSWSRYIRMLSYQEPSCA,< -0.25
CGINLLHAGSPDVLAMKSFT,< -0.25
TTLEVSEGAGVGWKM,< -0.25
IGLRLELSL,< -0.25
DICESREGRSIVRGTCSPIA,< -0.25
HRSGAFSVEICPRCVLMRSR,< -0.25
TVNVWEADVFCKVGGNLEAW,< -0.25
CFGSRG,< -0.25
LTPVIGCRAKGFSDMDSWYN,< -0.25
KLQLILPLCEVWPFGTVMIA,< -0.25
DLPPF,< -0.25
QVPLSLRIA,< -0.25

Continued.

Substance | growth estimate
SFKMRTEHYWAGSTSWK | < -0.25
KPVLEPFVAKPPSAVNTGDQ | -0.229
NVAESFSECSVNPRRKNSFD | < -0.25
TVFTPECQVSLCSDDREVKH | < -0.25
GSVCHNRELFGTAYDKGAKA | < -0.25
WWSNVARDRPPSNRCEELSG | < -0.25
LAYQLRPVI | < -0.25
HFPNHATTFSDSLRV | < -0.25
GGEFAWAEHGRKPVYSLCHN | < -0.25
PKCVAEEHIYPSIP | < -0.25
VSIEAQ | < -0.25
QSQAKRRFGLRRLCSRSRAG | < -0.25
QNTGFAQ | < -0.25
KADISRGVFPDYG | -0.246
ITRSQKFSVSVTSTARRTFD | < -0.25
LLPGVSWQYFRGPGEGRLYL | < -0.25
YRSVVILEPRKMRRALPCLA | < -0.25
AVVGRKCYSRGMVQRYIMLV | < -0.25
NGGNK | < -0.25
LSTQVSKRD | < -0.25
DRRVLACKGFPPTHSKRISL | < -0.25
SSVRATRILNGRD | < -0.25
TALCVVSY | -0.245

Substance | growth estimate
TVGTKIICGRLYQLSGPIPI | < -0.25
EGNFALCWCQNGFRRSQVST | < -0.25
GHDAIALEALKSPVIRLNAC | < -0.25
LCQPAPTRGRDPADTCDATL | < -0.25
SNCCTECRGRLMCGACRTVL | < -0.25
AIPSRKWPGLGSRIDVRWRL | < -0.25
TAEEPARFTTRFHGLLSICP | < -0.25
YVRW | < -0.25
LHLSMIAIDAAVFSLERLQD | < -0.25
PLQGRG | < -0.25
LSFLTGSNIQPRFPTGVCT | < -0.25
RGATVSQHYSSSNF | < -0.25
KGFGPREPDETSPEQCEQTI | < -0.25
RNGSFESRPSEN | < -0.25
NPL | < -0.25
KGGSRVGLEGRVRAYSNRQV | < -0.25
LSSLEFL | < -0.25
AIPPS | < -0.25
GEKFHQVTRVPSRAWPFGLN | -0.0747
GHHALS | < -0.25
TFIHDQLRHRLRYVK | < -0.25
KEPGYRQYNGGTTLRLLSFY | < -0.25
RVCGLGNFNRGAHSAY | < -0.25

Substance | growth estimate
GRKRSLAAARCVVGFGGWS | < -0.25
YCIRRP | < -0.25
RQPYLRCAERI | < -0.25
GCPVNFEYYGLL | -0.197
QKERILYTHTIRRGADT | < -0.25
SMRSEDPSHLVDRPSYGCWK | < -0.25
NMGRQCACSGFLMPLVITKY | < -0.25
RASGQHLVTNNTAR | < -0.25
FRIMWVTMGGLPVSVASSVR | < -0.25
AHGPRQASQVLCPGEHSGRG | < -0.25
RVLPGILVRMNWRWARACTT | < -0.25
NVCIFSMDWNWCPDRLECHR | < -0.25
CQSCQH | < -0.25
HGGGQIHGKFP | < -0.25
SSVSGIRRN | < -0.25
TAVL | < -0.25
SEGDK | < -0.25
LGQVRRLLGYVTFGISFLSR | < -0.25
GEDKVAPAISFGLY | < -0.25
CIRRDMRCHTSKTARRSRGD | < -0.25
GCHLDWRLEKCNREGTHFDR | < -0.25
QLTRT | < -0.25
HLLKLNL | < -0.25

Substance | growth estimate
SDCGPLRGGLTG | < -0.25
LFLRGALYCQNLHWNSPATS | < -0.25
HTRRENNGHLLPAP | < -0.25
VPHRGDAIHYPSYSEDKAHE | < -0.25
YSMLGRSVIRLCAVLRSLIA | < -0.25
WPLPNSGTYV | < -0.25
YNGQFI | < -0.25
TSLSSQMK | < -0.25
RHEYAIDETRLDRCYNWIAG | < -0.25
RFTPDLVIATADFRLTM | < -0.25
SRGYDQRQRNLGSYLRAGPS | < -0.25
LGDPWGWEPCSYVGFAAPTL | 1.28
HKYFACWGFFKR | < -0.25
PRINI | < -0.25
SGGRSATDRPQRFLRIFGFG | < -0.25
ILHGL | < -0.25
CDRDSV | < -0.25
RSSTTFVN | < -0.25
KAHEVS | < -0.25
